Source: paper PMC9969585
These are yes or no findings as the source states them, for the method shown. Binding seen in cells or lysates may run through a third protein. Some binding calls cover weakened binding; strength is not graded here. Tags and fused reporters may be left off the sequences shown.

Chains of the proteins cited; added tags and fusions are not shown.
UniProt P08047: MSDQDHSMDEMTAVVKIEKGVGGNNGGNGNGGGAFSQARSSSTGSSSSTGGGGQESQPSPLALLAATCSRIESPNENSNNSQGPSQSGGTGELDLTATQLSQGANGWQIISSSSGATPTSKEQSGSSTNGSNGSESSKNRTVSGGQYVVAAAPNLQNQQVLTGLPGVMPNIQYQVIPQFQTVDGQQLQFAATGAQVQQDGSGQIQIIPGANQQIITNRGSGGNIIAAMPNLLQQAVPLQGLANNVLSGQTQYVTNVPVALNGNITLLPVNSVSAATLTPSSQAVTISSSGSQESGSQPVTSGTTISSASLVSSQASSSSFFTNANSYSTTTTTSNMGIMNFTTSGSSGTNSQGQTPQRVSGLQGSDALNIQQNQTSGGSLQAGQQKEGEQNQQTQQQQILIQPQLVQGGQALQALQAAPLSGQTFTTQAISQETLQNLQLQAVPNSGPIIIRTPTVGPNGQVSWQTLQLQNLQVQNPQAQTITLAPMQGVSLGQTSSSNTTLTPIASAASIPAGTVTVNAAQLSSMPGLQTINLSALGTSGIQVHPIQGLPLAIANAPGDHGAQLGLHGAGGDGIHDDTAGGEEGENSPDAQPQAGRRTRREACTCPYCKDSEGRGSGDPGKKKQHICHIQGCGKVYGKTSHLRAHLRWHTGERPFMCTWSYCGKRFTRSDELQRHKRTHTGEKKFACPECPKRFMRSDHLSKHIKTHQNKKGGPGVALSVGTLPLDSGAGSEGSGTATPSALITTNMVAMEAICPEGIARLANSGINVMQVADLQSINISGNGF

Molecular target: HA-tagged Sp1 (UniProt P08047)
Assay: co-IP; H1299 cells co-transfected with pcDNA3.0-Flag-SKA2 and pcDNA3.0-HA-Sp1; whole cell extracts precleared with Protein A/G Magnetic Beads, incubated with anti-HA antibody or normal rabbit IgG overnight at 4 °C; immunoblot with anti-Flag antibody

B1: Flag-tagged SKA2 (spindle and kinetochore associated complex subunit 2) (protein, UniProt Q8WVK7 1-121)
chain: MEAEVDKLELMFQKAESDLDYIQYRLEYEIKTNHPDSASEKNPVTLLKELSVIKSRYQTLYARFKPVAVEQKESKSRICATVKKTMNMIQKLQKQTDLELSPLTKEEKTAAEQFKFHMPDL
binding: binds
